Drawing on PMC9579194 (Nature Communications, 2022), this text covers step yield for two substances.

The nature of the data set: general procedure: Fmoc solid-phase peptide synthesis; Rink amide resin (0.26 mmol/g); HCTU/DIEA. As to conditions: late stage modification step.

In turn, TAMRA labeled CP1-L1C-C6F5 returned a step yield (thioether ring) of 31%.

cyclic peptide 2-TAMRA yielded a step yield of 19%.
